According to US20120095085:
The exact form of at least one protein or probe is not confirmed. A negative result means that nothing was seen under these conditions.

Amino acid sequences for entries named in this document (tags omitted). A change or cut given only in a name is not applied to a line headed by its entry.
UniProt Q9P126: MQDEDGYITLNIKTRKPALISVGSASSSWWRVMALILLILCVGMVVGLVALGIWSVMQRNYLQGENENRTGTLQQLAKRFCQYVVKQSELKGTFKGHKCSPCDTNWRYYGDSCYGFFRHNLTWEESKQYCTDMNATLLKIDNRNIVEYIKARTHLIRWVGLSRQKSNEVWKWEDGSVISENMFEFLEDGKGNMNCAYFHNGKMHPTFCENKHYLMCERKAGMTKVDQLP

Target: CLEC-2 extracellular domain (Homo sapiens) (UniProt Q9P126)
Experiment: FP filter
Details: 2'-F C and U; 2'-OH A and G; 3' idT; buffer F, 37 C; purified recombinant protein; protein details: N-terminal His10, R&D Systems 1718-CL-050; label: 32P 5' …; variant of S2-20

Row | Sequence | Kd
1 | GAUGCGGACUGGGCUCAUAUUCCCGCGCAUC [RB587] | 2.9 nM

Same assay, conditions: 2'-F C and U; 2'-OH A and G; 3' idT; negative control, does not bind; buffer F, 37 C; purified recombinant protein; protein details: N-terminal His10, R&D Systems 1718-CL-050; label: 32P 5' end; variant of RB587

Row | Sequence | Kd
2 | GAUGCGCACUGGGCUCAUAUUCCCGCGCAUC [RB588] | > 60 nM

Same assay, conditions: 2'-F C and U; 2'-OH A and G; Kd listed as dead; binding abolished; buffer F, 37 C; purified recombinant protein; protein details: N-terminal His10, R&D Systems 1718-CL-050; label: 32P 5' end; variant of …

Row | Sequence | binding result
3 | GGGAGGACGAUGCGGACUGGGCUCAUAUUCCCG [S2-20 T5] | no binding

Same assay, conditions: 2'-F C and U; 2'-OH A and G; buffer F, 37 C; purified recombinant protein; protein details: N-terminal His10, R&D Systems 1718-CL-050; label: 32P 5' end; variant of S2-20

Row | Sequence | Kd
4 | GGGAGAGCGGACUGGGCUCAUAUUCCCGCGCUC [S2-20 T7] | 3 nM
5 | GGGAGGACGAUGCGGACUGGGCUCAUAUUCCCGCGCAUCUUACUACCUCGGUUAU [S2-20 T1] | 4.6 nM
6 | GGGAGGACGAUGCGGACUGGGCUCAUAUUCCCGCGCAUCUUACUACCUC [S2-20 T2] | 2.8 nM
7 | GGGAGAUGGGACUGGGCUCAUAUUCCCGCCAUC [S2-20 T9] | 18.7 nM
8 | GGGAUGCGGACUGGGCUCAUAUUCCCGCGCAUC [S2-20 T10] | 2.2 nM
9 | GGGAGAUCGGACUGGGCUCAUAUUCCCGCGAUC [S2-20 T8] | 1.6 nM
10 | GGGAGGACGAUGCGGACUGGGCUCAUAUUCCCGCGCAUC [S2-20 T4] | 1.4 nM
11 | GGGAGGACGAUGCGGACUGGGCUCAUAUUCCCGCGCAUCUUACUA [S2-20 T3] | 2.2 nM
12 | GGGAGAUGCGGACUGGGCUCAUAUUCCCGCGCAUC [S2-20 T6] | 1 nM

Same assay, conditions: 2'-F C and U; 2'-OH A and G; buffer F, 37 C; purified recombinant protein; protein details: N-terminal His10, R&D Systems 1718-CL-050; label: 32P 5' end; variant of S2-20 T4

Row | Sequence | Kd
13 | GGGAGGACGAUGCGGGCUGGGCUCAUAUUCCCGCGCAUC [S2-20 T4 Mut31] | 4.3 nM
14 | GGGAGGACGAUGCGGUCUGGGCUCAUAUUCCCGCGCAUC [S2-20 T4 Mut30] | 6.8 nM
15 | GGGAGGACGAUGCGGACUGGGCUCAGAUUCCCGCGCAUC [S2-20 T4 Mut32] | 12.4 nM

Same assay, conditions: 2'-F C and U; 2'-OH A and G; buffer F, 37 C; purified recombinant protein; protein details: N-terminal His10, R&D Systems 1718-CL-050; label: 32P 5' end; variant of S2-20 T6

Row | Sequence | Kd
16 | GGGAGAUGCGGUCUGGGCUCAUAUUCCCGCGCAUC [S2-20 Mut8] | 3.5 nM
17 | GGGAGAUGCGGAGUGGGCUCAUAUUCCCGCGCAUC [S2-20 Mut6] | > 60 nM
18 | GGGAGAUGCGGACUGGGCUCAAUUUCCCGCGCAUC [S2-20 Mut4] | > 60 nM
19 | GGGAGAUGCGGACUGGGCUCAUAAACCCGCGCAUC [S2-20 Mut5] | > 60 nM
20 | GGGAGAUGCGGACUGGGCUCAUAUUCCCGCGCAUCUCCC [S2-20 T6 ext10bp] | 4.6 nM
21 | GGGAGAUGCGGACUGGGCUGUUAUUCCCGCGCAUC [S2-20 Mut3] | > 60 nM
22 | GGGAGAUGCGCUCUGGGCUCAUAUUCCCGCGCAUC [S2-20 Mut1] | > 60 nM
23 | GGGAGAUGCGGACUGGGCUCAUAUUCCCGCGCAUCUC [S2-20 T6 ext8bp] | 3.9 nM
24 | GGGAGAUGCGGACUGGGGACAUAUUCCCGCGCAUC [S2-20 Mut2] | > 60 nM

Same assay, conditions: 2'-F C and U; 2'-OH A and G; buffer F, 37 C; purified recombinant protein; protein details: N-terminal His10, R&D Systems 1718-CL-050; label: 32P 5' end; variant of S2-20 …

Row | Sequence | Kd
25 | GGGAUGCGGACUGGGUUCAUAUUCCCGCGCAUC [S2-20 T10 Mut17] | 8.8 nM
26 | GGGAUGCGGACUGGGCACAUAUUCCCGCGCAUC [S2-20 T10 Mut10] | > 60 nM
27 | GGGAUGCGGACUGGGCUCAUUUCCCGCGCAUC [S2-20 T10 Mut29] | > 60 nM
28 | GGGAUGCGGACUGGGCUCUAUUCCCGCGCAUC [S2-20 T10 Mut28] | > 60 nM
29 | GGGAUGCGGACUGGGCUCAUUUUCCCGCGCAUC [S2-20 T10 Mut14] | > 60 nM
30 | GGGAUGCGGACUGGGCUCAAAUUCCCGCGCAUC [S2-20 T10 Mut13] | 2.4 nM
31 | GGGAUGCGGACUGGGCUCAUGUUCCCGCGCAUC [S2-20 T10 Mut22] | 5.6 nM
32 | GGGAUGCGGACUGGGCCCAUAUUCCCGCGCAUC [S2-20 T10 Mut18] | 51.7 nM
33 | GGGAUGCGGACUGGGCUCAUAAUCCCGCGCAUC [S2-20 T10 Mut15] | 30 nM
34 | GGGAUGCGGACUGGGCUUAUAUUCCCGCGCAUC [S2-20 T10 Mut19] | 5.7 nM
35 | GGGAUGCGGAUUGGGCUCAUAUUCCCGCGCAUC [S2-20 T10 Mut26] | > 60 nM
36 | GGGAUGCGGACUGGGCUCACAUUCCCGCGCAUC [S2-20 T10 Mut21] | 1.7 nM
37 | GGGAUGCGGACUGGGCUCUUAUUCCCGCGCAUC [S2-20 T10 Mut12] | 2.4 nM
38 | GGGAUGCGGACUGGGCUCAUCUUCCCGCGCAUC [S2-20 T10 Mut27] | > 60 nM
39 | GGGAUGCGAACUGGGCUCAUAUUCCCGCGCAUC [S2-20 T10 Mut25] | > 60 nM
40 | GGGAUGCGUACUGGGCUCAUAUUCCCGCGCAUC [S2-20 T4 Mut33] | > 60 nM
41 | GGGAUGCGGACUGGGCUCGUAUUCCCGCGCAUC [S2-20 T10 Mut20] | 1.2 nM
42 | GGGAUGCGGACUGGGGUCAUAUUCCCGCGCAUC [S2-20 T10 Mut9] | > 60 nM
43 | GGGAUGCGGACUGGGCUCAUACUCCCGCGCAUC [S2-20 T10 Mut23] | 6.7 nM
44 | GGGAUGCGGACUGGGCUCAUAUACCCGCGCAUC [S2-20 T10 Mut16] | > 60 nM
45 | GGGAUGCGGACUGGGCUCAAUUCCCGCGCAUC [S2-20 T4 Mut37] | > 60 nM
46 | GGGAUGCGGACUGGGCUGAUAUUCCCGCGCAUC [S2-20 T10 Mut11] | > 60 nM
47 | GGGAUGCGGACUGGGCUCAUAUCCCCGCGCAUC [S2-20 T10 Mut24] | > 60 nM

Same assay, conditions: 2'-F C and U; 2'-OH A and G; essentially no specific binding; buffer F, 37 C; purified recombinant protein; protein details: N-terminal His10, R&D Systems 1718-CL-050; label: 32P 5' end; variant of S2-20 T6

Row | Sequence | Kd
48 | GGGAGAUGCGCACUGGGCUCAUAUUCCCGCGCAUC [S2-20 Mut7] | > 60 nM

Same assay, conditions: 2'-F C and U; 2'-OH A and G; purified recombinant protein; protein details: N-terminal His10, R&D Systems 1718-CL-050; label: 32P 5' end

Row | Sequence | Kd
49 | GGGAGGACGAUGCGGACUGGGCUCAUAUUCCCGCGCAUCUUACUACCUCGGUUAUCAGACGACUCGCUGAGGAUCCGAGA [S2-20] | 1.4 nM

Same assay, conditions: 2'-F C and U; 2'-OH A and G; stem 2 U-G to C-G; buffer F, 37 C; purified recombinant protein; protein details: N-terminal His10, R&D Systems 1718-CL-050; label: 32P 5' end; variant of S2-20 T10

Row | Sequence | Kd
50 | GGGAUGCGGACCGGGCUCAUAUUCCCGCGCAUC [S2-20 T11] | 66 nM

Target: CLEC-2 (on human platelets) (Homo sapiens) (UniProt Q9P126)
Experiment: activity in cells
Details: 2'-F C and U; 2'-OH A and G; 3' idT; essentially full inhibition of rhodocytin-induced washed platelet aggregation at 0.5 uM; protein on the cell surface; variant of S2-20

Row | Sequence | functional effect of the aptamer
51 | GAUGCGGACUGGGCUCAUAUUCCCGCGCAUC [RB587] | active

Same assay, conditions: 2'-F C and U; 2'-OH A and G; 3' idT; no inhibition of rhodocytin-induced P-selectin expression at 2 uM; protein on the cell surface; variant of RB587

Row | Sequence | functional effect of the aptamer
52 | GAUGCGCACUGGGCUCAUAUUCCCGCGCAUC [RB588] | not active

Same assay, conditions: 2'-F C and U; 2'-OH A and G; essentially full inhibition of rhodocytin-induced washed platelet aggregation at 0.5 uM; protein on the cell surface

Row | Sequence | functional effect of the aptamer
53 | GGGAGGACGAUGCGGACUGGGCUCAUAUUCCCGCGCAUCUUACUACCUCGGUUAUCAGACGACUCGCUGAGGAUCCGAGA [S2-20] | active

Same assay, conditions: 2'-F C and U; 2'-OH A and G; no inhibition of rhodocytin-induced P-selectin expression at 2 uM; protein on the cell surface; variant of S2-20

Row | Sequence | functional effect of the aptamer
54 | GGGAGGACGAUGCGGACUGGGCUCAUAUUCCCG [S2-20 T5] | not active

Same assay, conditions: 2'-F C and U; 2'-OH A and G; reduces rhodocytin-induced P-selectin expression at 2 uM; protein on the cell surface; variant of S2-20

Row | Sequence | functional effect of the aptamer
55 | GGGAGGACGAUGCGGACUGGGCUCAUAUUCCCGCGCAUC [S2-20 T4] | active
56 | GGGAGAUGCGGACUGGGCUCAUAUUCCCGCGCAUC [S2-20 T6] | active
